Data taken from article PMC7532690.
These are yes or no findings as the source states them, for the method shown. In cells and extracts the contact can be indirect.

The chains behind the UniProt entries cited, without tags or fusion partners. Residues count along the entry.
UniProt Q9JLF7, residues 27-859: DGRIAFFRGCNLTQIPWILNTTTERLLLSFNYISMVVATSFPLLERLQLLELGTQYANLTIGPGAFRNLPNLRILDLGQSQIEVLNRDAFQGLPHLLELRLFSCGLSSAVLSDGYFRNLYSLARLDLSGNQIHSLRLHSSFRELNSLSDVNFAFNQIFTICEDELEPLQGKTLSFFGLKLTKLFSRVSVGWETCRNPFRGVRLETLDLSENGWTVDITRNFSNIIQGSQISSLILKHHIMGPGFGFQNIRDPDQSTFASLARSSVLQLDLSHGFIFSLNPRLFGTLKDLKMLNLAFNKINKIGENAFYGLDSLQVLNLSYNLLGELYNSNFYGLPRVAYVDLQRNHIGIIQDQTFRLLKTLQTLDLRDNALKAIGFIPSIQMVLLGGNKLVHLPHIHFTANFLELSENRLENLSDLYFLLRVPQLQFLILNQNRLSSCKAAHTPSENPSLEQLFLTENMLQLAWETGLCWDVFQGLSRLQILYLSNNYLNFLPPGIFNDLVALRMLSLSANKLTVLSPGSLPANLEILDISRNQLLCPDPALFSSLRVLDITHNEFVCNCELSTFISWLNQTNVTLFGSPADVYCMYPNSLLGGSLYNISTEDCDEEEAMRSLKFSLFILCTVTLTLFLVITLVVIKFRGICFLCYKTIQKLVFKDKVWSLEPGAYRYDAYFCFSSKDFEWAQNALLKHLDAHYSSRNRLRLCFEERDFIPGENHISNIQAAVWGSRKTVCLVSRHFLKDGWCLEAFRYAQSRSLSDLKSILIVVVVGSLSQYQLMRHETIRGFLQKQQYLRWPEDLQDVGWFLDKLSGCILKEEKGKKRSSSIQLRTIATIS

Target: toll-like receptor 5 (mouse (endogenous in heart)) (UniProt Q9JLF7)
Assay: co-IP; mouse heart lysates incubated with antibodies targeting TLR5 or IgG at 4 °C overnight, collected on Protein A+G agarose beads; immunoblot with NOX2 antibody or Syk antibody

binding: no binding
B1: NADPH oxidase (NOX) 2 (enzyme, UniProt Q61093 1-570)
chain: MGNWAVNEGLSIFVILVWLGLNVFLFINYYKVYDDGPKYNYTRKLLGSALALARAPAACLNFNCMLILLPVCRNLLSFLRGSSACCSTRIRRQLDRNLTFHKMVAWMIALHTAIHTIAHLFNVEWCVNARVGISDRYSIALSDIGDNENEEYLNFAREKIKNPEGGLYVAVTRLAGITGIVITLCLILIITSSTKTIRRSYFEVFWYTHHLFVIFFIGLAIHGAERIVRGQTAESLEEHNLDICADKIEEWGKIKECPVPKFAGNPPMTWKWIVGPMFLYLCERLVRFWRSQQKVVITKVVTHPFKTIELQMKKKGFKMEVGQYIFVKCPKVSKLEWHPFTLTSAPEEDFFSIHIRIVGDWTEGLFNACGCDKQEFQDAWKLPKIAVDGPFGTASEDVFSYEVVMLVGAGIGVTPFASILKSVWYKYCDNATSLKLKKIYFYWLCRDTHAFEWFADLLQLLETQMQERNNANFLSYNIYLTGWDESQANHFAVHHDEEKDVITGLKQKTLYGRPNWDNEFKTIASEHPNTTIGVFLCGPEALAETLSKQSISNSESGPRGVHFIFNKENF
